Test results taken from publication PMC8210613.

Target: T1, endogenous Annexin-A1 (ANXA1) of primary cultured mouse neurons (mouse (endogenous in primary cultured neurons)) (UniProt P10107)
T1 sequence: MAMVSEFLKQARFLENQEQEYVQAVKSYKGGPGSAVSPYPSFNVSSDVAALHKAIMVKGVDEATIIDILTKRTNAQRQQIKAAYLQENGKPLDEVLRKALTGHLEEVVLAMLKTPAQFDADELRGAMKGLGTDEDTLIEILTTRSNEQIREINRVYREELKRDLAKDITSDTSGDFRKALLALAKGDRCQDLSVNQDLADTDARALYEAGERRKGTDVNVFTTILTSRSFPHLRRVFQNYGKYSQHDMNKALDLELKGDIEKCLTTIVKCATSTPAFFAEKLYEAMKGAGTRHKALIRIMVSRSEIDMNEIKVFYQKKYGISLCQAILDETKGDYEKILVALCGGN
Assay: co-IP; endogenous proteins in whole-cell lysates of primary cultured mouse neurons, with or without OGD/R; in some panels neurons infected with adenovirus for SENP6-WT, SENP6-C1030S, SENP6 shRNA or controls; immunoprecipitation with anti-SENP6 or anti-ANXA1, protein A/G agarose, immunoblot

binding: binds
Substance: endogenous PKC kinase of primary cultured mouse neurons (enzyme)

Results are given in words; binding and its absence hold for the method and conditions named. In cells and extracts the contact can be indirect. Binding calls can cover weak binding; strength is not graded here.
